Measurements published in patent US12203099B2, “Methods of expanding cholangiocytes” (Cambridge Enterprise Limited, priority 2017, dated 2025).
At least one compound was matched to its structure with a doubt left.

System: ECOs
Assay: Response to secretin and somatostatin (organoid diameter)
Type: cell-based, human
Settings: ECOs treated with secretin and somatostatin
Description: Responses to secretin and somatostatin were assessed as described in Sapazoits F, et al. (Biotechnol. 2015 1-11).
We then further characterized ECOs by focusing on their function following long-term culture (20 passages). The biliary epithelium regulates the homeostasis of bile through the transport of ions, water and bile acids. The secretory capacity of ECOs was interrogated using Rhodamine-123, a fluorescent substrate for the cholangiocyte surface glycoprotein Multidrug Resistance protein-1 (MDR1) (FIGS. 10 and 11). […]. […] The response of ECOs to secretin and somatostatin was also assessed. Secretin promotes water secretion, distending the bile duct lumen, while somatostatin negates the effects of secretin.

C[C@H](N)C(=O)NCC(=O)N[C@H]1CSSC[C@@H](C(=O)O)NC(=O)[C@H](CO)NC(=O)[C@H]([C@@H](C)O)NC(=O)[C@H](Cc2ccccc2)NC(=O)[C@H]([C@@H](C)O)NC(=O)[C@H](CCCCN)NC(=O)[C@H](Cc2c[nH]c3ccccc23)NC(=O)[C@H](Cc2ccccc2)NC(=O)[C@H](Cc2ccccc2)NC(=O)[C@H](CC(N)=O)NC(=O)[C@H](CCCCN)NC1=O [somatostatin]
effect on secretin-induced increase of organoid diameter: inhibited the effect of secretin
